{"sequences": {"note": "Protein sequences, listed by entry. Tags and fused reporters are not part of them.", "UniProt P40763": "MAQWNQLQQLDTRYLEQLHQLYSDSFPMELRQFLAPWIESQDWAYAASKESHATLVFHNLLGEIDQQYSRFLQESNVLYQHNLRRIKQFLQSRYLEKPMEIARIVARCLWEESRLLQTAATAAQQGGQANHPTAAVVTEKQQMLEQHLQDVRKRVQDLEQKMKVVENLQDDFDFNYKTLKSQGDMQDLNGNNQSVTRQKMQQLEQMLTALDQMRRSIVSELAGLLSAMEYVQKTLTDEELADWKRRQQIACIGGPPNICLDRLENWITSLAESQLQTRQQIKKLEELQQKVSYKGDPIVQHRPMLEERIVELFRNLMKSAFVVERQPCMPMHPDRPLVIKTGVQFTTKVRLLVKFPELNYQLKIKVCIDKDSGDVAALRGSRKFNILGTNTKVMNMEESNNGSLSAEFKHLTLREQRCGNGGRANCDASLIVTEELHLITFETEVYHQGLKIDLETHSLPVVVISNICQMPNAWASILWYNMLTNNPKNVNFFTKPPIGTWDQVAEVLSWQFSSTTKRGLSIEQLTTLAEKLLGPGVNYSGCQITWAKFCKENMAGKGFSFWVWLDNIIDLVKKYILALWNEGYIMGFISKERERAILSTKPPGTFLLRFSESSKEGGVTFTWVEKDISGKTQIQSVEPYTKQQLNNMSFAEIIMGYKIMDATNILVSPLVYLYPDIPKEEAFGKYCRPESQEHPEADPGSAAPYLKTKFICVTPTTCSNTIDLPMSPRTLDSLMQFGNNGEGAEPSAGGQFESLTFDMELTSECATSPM"}, "source": "paper PMC8806792", "target": "T1, T-cell protein tyrosine phosphatase (TCPTP) (human (endogenous in HCC cells, Hep3B or HCCLM3)) (UniProt P17706)", "T1 sequence": "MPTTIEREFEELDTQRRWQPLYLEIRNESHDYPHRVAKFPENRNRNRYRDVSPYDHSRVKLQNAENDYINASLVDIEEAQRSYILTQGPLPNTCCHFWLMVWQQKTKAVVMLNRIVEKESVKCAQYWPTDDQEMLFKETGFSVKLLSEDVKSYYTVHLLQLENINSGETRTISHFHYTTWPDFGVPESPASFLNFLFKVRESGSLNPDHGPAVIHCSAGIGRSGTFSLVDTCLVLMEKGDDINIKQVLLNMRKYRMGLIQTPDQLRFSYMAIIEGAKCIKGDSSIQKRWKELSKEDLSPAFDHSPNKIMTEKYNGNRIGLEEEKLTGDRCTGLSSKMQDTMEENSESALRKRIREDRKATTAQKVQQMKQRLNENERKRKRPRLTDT", "assay": "co-IP; endogenous TCPTP and STAT3 in HCC cells silenced by siRNA (TINCR-silenced as the set-up says); which protein was precipitated is not told", "note": "No constants are given. Whether binding was seen depends on the method and setting. In cells and extracts the contact can be indirect. Some entries that bind do so weakly or less than the wild type.", "data": [{"substance": "signal transducer and activator of transcription 3 (STAT3) (from UniProt P40763 1-770)", "values": [{"measurement": "binding", "result": "binds"}]}]}
